From PubChem BioAssay AID1487 (National Center for Advancing Translational Sciences (NCATS), 2009)
The list shows a part of the results. These are further read-outs of the screen, such as a control signal, another cell line or another target. No call is given for them. Compounds called inactive in the main read-out are mostly missing here. Potencies come from curve fits of mixed quality, noted in brackets.

Assay: qHTS Assay for Modulators of Lamin A Splicing
Conditions: HeLa LMNA splicing GFP/RFP minigene ratio, 48 h
Procedure, shortened: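 S3 HeLa cells stably expressing lamin A-EGFP splicing minigene plus DsRed2, 600 cells/well, 48 h compound exposure at 37C. Laser-scanning cytometry; analysed as GFP (500-530 nm)/RFP (575-640 nm) total intensity ratio; 0.5% DMSO vehicle.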

[1] = measured here: GFP splicing reporter channel
[2] = measured here: RFP viability control channel

| SMILES | AC50 [1] | AC50 [2] |
| --- | --- | --- |
| CC(C)c1ccc(OCc2nc(-c3ccccn3)no2)c(Br)c1 | 7.94 µM [rising, partial curve] | 15.8 µM [rising, single point] |
| COc1ccc(Cl)cc1NC(=O)CSc1nc(=O)[nH]c2c1CCCC2 | – | 0.00501 µM [falling, full curve] |
| COc1ccc(S(=O)(=O)N2CCCC2)c(Cl)c1Cl | – | 0.398 µM [falling, partial curve] |
| Cc1nc2ccccc2c2oc(C(=O)N3CCC(N4CCCCC4)CC3)cc12 | – | 10 µM [rising, partial curve] |
| O=C(NCc1ccc2c(c1)OCO2)c1ccc(Cl)c(S(=O)(=O)NCc2ccccc2)c1 | 3.55 µM [rising, single point] | 15.8 µM [rising, single point] |
| Cc1ccc(C)c2[nH]c(=O)c(CCNC(=O)Cc3cccs3)cc12 | – | 7.08 µM [falling, full curve, poor fit] |
| CCOC(=O)C(=CNc1ccc(NC2=NCC(C)S2)cc1)C(=O)OCC (stereo not drawn) | 7.94 µM [rising, partial curve] | 14.1 µM [rising, partial curve, poor fit] |
| CN(C)c1ccc(-c2ccc3ncnc(N(C)Cc4ccco4)c3c2)cc1 | 3.98 µM [falling, full curve] | 4.47 µM [falling, full curve] |
| COc1cc(Cl)c(NC(=O)CN(C)S(=O)(=O)c2ccc3c(c2)CCCC(=O)N3)c(OC)c1 | – | 35.5 µM [rising, partial curve, poor fit] |
| CN(C)CCOc1ccccc1Cc1ccccc1 | – | 0.02 µM [falling, full curve, poor fit] |
| Clc1ccc(CNc2ccc(CNc3ncn[nH]3)cc2)cc1 | 14.1 µM [rising, partial curve] | 35.5 µM [rising, single point] |
| COc1ccc(NC(=O)c2cc(C)nc3c2c(C)nn3-c2cccc(Cl)c2C)c(OC)c1 | 5.01 µM [falling, single point] | 0.251 µM [falling, partial curve, poor fit] |
| Cc1[nH]n(-c2ccccc2)c(=O)c1/C=N/NC(=O)COc1ccccc1[N+](=O)[O-] | – | 25.1 µM [rising, single point] |
| Cc1nn(C)c(C)c1S(=O)(=O)N1CCCC(C(=O)NC2CCCCCC2)C1 (stereo not drawn) | 14.1 µM [rising, single point] | 11.2 µM [rising, partial curve] |
| O=C1COc2cc(S(=O)(=O)CCC(=O)N3CCN(c4ccccc4)CC3)c(Cl)cc2N1 | 0.00316 µM [falling, full curve, poor fit] | 0.00316 µM [falling, full curve, poor fit] |
| COc1ccc(/C=N\NC(=O)COc2ccc(Cl)cc2Cl)c(C(=O)O)c1OC | – | 35.5 µM [rising, single point] |
| CCS(=O)(=O)c1cccc(C(=O)N2CCN(c3nc4c(C)ccc(Cl)c4s3)CC2)c1 | 0.00891 µM [falling, full curve] | 0.00447 µM [falling, full curve, poor fit] |

Reformatted comma-delimited: seven of the compounds above
SMILES,AC50 [1],AC50 [2]
CN(C)CCOc1ccccc1Cc1ccccc1,–,"0.02 µM [falling, full curve, poor fit]"
Clc1ccc(CNc2ccc(CNc3ncn[nH]3)cc2)cc1,"14.1 µM [rising, partial curve]","35.5 µM [rising, single point]"
COc1ccc(NC(=O)c2cc(C)nc3c2c(C)nn3-c2cccc(Cl)c2C)c(OC)c1,"5.01 µM [falling, single point]","0.251 µM [falling, partial curve, poor fit]"
Cc1[nH]n(-c2ccccc2)c(=O)c1/C=N/NC(=O)COc1ccccc1[N+](=O)[O-],–,"25.1 µM [rising, single point]"
Cc1nn(C)c(C)c1S(=O)(=O)N1CCCC(C(=O)NC2CCCCCC2)C1 (stereo not drawn),"14.1 µM [rising, single point]","11.2 µM [rising, partial curve]"
O=C1COc2cc(S(=O)(=O)CCC(=O)N3CCN(c4ccccc4)CC3)c(Cl)cc2N1,"0.00316 µM [falling, full curve, poor fit]","0.00316 µM [falling, full curve, poor fit]"
COc1ccc(/C=N\NC(=O)COc2ccc(Cl)cc2Cl)c(C(=O)O)c1OC,–,"35.5 µM [rising, single point]"

The results go on:

| SMILES | AC50 [1] | AC50 [2] |
| --- | --- | --- |
| COC(=O)/C=C/C(=O)Nc1cccc(C(F)(F)F)c1 | 3.98 µM [rising, single point] | 3.16 µM [rising, single point] |
| COc1ccc(NS(=O)(=O)c2ccc(NC(=S)NC(=O)C(C)C)cc2)cc1 | 11.2 µM [rising, partial curve, poor fit] | – |
| N#Cc1ccc(CSc2ncnc3c2cnn3Cc2ccccc2)cc1 | – | 15.8 µM [rising, single point] |
| COC(=O)c1ccc(CSc2nc3c([nH]c4ccccc43)c(=O)n2-c2cc(C)cc(C)c2)o1 | – | 11.2 µM [falling, partial curve, poor fit] |
| CCCCCCCCCc1nc2sc3c(c2c(=O)n1NC(=O)c1ccccc1[N+](=O)[O-])CC(C)(C)OC3 | – | 12.6 µM [rising, single point] |
| Cc1cccc(-c2onc3ccc(C4(C)OCCO4)cc23)c1 | 14.1 µM [rising, single point] | 15.8 µM [rising, single point] |
| CSc1cccc(NC(=O)C2CCCN(S(=O)(=O)c3ccc(F)cc3)C2)c1 (stereo not drawn) | – | 12.6 µM [rising, partial curve, poor fit] |
| CCOC(=O)c1c(C)[nH]c(C(=O)COC(=O)c2ccncc2)c1C | 22.4 µM [falling, partial curve, poor fit] | 1.26 µM [falling, partial curve, poor fit] |
| CC(C)(C)C(=O)N1CCN(c2ccc(Cl)cc2[N+](=O)[O-])CC1 | – | 12.6 µM [rising, partial curve, poor fit] |
| CCC1CCCCN1C(=S)Nc1ccc(OC(F)F)cc1 (stereo not drawn) | 10 µM [rising, single point] | 20 µM [rising, partial curve] |
| Cc1ccn2c(-c3csc(NCc4ccco4)n3)c(C)nc2c1 | – | 35.5 µM [rising, single point] |
| COc1ccc(Cl)cc1C(=O)Nc1c2c(nn1-c1ccc(Cl)cc1)CS(=O)(=O)C2 | 0.00355 µM [falling, full curve, poor fit] | – |
| COc1ccc(-c2cc(=O)c3c(O)c(OC)c(OC)c(OC)c3o2)cc1OC | – | 14.1 µM [rising, single point] |
| O=C(N/N=C/c1c[nH]c2ccccc12)c1[nH]c2ccc(Br)cc2c1-c1ccccc1 | 20 µM [falling, partial curve] | 22.4 µM [falling, single point] |
| Cc1nn(Cc2ccc(Cl)c(Cl)c2)c(C)c1NC(=O)c1cc(-c2ccco2)on1 | – | 11.2 µM [rising, single point] |
| COc1ccc(S(=O)(=O)NCCc2sc(-c3cccc(C)c3)nc2C)cc1 | – | 35.5 µM [falling, single point] |
| Cc1cc(C)c2c3c(sc2n1)C(c1cccc(F)c1)C(C#N)=C(N)O3 (stereo not drawn) | – | 17.8 µM [rising, single point] |
